Experimental findings from publication PMC8782888 are described below.

By UniProt entry, the sequences of proteins in these tests, tags left out.
UniProt P35240: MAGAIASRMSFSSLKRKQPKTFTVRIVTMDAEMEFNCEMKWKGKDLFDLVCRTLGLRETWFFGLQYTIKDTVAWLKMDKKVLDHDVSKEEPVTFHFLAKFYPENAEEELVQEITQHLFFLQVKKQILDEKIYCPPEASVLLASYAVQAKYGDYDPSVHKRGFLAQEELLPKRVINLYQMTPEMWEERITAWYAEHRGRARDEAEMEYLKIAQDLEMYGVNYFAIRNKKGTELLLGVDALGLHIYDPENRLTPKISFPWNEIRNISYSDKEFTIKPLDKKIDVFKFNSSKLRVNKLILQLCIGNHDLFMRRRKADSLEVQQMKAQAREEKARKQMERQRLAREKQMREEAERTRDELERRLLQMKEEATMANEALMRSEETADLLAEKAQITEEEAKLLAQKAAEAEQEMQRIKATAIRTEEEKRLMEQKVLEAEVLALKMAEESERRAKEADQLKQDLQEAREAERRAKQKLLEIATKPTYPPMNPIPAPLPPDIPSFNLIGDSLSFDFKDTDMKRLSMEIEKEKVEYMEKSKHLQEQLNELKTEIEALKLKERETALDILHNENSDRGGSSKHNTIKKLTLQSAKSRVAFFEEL

Results are given in words; binding and its absence hold for the method and conditions named. In cells and extracts the contact can be indirect.

The test deals with T1, RICH1 (UniProt Q68EM7).
T1 sequence: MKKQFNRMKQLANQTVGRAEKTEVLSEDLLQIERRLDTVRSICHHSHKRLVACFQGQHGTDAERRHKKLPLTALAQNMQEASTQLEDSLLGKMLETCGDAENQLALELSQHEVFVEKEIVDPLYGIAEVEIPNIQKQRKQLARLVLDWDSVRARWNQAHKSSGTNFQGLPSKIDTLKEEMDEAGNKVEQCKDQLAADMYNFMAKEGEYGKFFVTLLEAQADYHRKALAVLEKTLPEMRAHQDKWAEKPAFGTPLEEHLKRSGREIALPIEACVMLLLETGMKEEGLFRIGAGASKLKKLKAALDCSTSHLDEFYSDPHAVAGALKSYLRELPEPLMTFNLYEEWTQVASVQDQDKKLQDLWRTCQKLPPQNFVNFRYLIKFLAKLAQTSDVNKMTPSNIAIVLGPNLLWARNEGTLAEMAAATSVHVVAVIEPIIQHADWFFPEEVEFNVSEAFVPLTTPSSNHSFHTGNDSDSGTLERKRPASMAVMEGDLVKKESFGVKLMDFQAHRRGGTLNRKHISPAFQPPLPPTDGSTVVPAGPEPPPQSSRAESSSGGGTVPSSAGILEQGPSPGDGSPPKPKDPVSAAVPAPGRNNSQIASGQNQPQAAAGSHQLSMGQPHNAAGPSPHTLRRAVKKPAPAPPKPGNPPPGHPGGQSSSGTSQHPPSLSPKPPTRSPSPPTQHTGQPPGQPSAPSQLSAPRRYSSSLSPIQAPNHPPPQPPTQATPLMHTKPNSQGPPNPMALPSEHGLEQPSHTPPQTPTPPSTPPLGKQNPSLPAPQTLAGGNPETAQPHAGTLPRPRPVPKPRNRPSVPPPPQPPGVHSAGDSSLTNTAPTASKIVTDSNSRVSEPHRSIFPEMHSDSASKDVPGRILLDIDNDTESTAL
Kind of test: co-IP; BT549 lysates (parental, control, RICH1- or RICH1△BAR-overexpressing cells); NP-40 lysis buffer (20 mM Tris-HCl, 150 mM NaCl, 0.5% NP-40, 20% glycerol); 4 μg antibody and 50 μl protein A/G magnetic beads; western blotting. (In general: In western blotting, separated proteins are transferred to a membrane and probed.)

As to Merlin (from UniProt P35240 1-595), the binding entry is “no binding”.
